Results are given in words; binding and its absence hold for the method and conditions named. For some assays here: Binding seen in cells or lysates may run through a third protein. Some entries that bind do so weakly or less than the wild type. Tags and fused reporters may be left off the sequences shown.
How the values were obtained:
GST-PARP-7 = target: T1, GST-PARP-7 (UniProt Q7Z3E1); assay: pull-down; GST pulldown: His6-SUMO-PARP-13.2 (100 nM) and GST-PARP-7 (100 nM) in HRB (50 mM HEPES, 100 mM NaCl, 10 mM MgCl2, 0.5 mM TCEP) 1 hr at 4°C; then vehicle, NAD+ (100 μM), Phthal01 (1 μM) or NAD+ with Phthal01, 2 hr at 30°C; GSH-Sepharose; washes with HRB with 1 mM EDTA; Western blot for ADPr, GST, His6; both purified
T1 sequence: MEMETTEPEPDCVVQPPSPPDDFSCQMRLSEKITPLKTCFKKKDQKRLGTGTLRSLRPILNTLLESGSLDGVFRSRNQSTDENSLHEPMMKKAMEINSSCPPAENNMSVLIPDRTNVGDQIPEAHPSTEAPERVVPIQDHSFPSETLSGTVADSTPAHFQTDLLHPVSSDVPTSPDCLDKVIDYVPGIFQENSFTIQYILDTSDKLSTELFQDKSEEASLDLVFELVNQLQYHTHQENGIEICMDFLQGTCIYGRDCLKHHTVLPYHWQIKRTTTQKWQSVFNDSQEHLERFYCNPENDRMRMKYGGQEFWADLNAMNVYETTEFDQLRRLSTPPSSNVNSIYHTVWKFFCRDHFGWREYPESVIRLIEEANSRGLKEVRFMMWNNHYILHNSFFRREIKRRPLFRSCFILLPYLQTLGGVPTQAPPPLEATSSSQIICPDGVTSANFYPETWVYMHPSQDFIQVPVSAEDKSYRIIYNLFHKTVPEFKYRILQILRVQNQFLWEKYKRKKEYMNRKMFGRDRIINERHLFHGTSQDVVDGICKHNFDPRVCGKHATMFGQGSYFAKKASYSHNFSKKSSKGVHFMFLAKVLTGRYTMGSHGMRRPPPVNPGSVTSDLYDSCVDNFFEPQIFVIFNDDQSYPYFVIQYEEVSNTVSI

Sequences of proteins named here, by UniProt entry; tags and fusion partners are left off. A change or cut given only in a name is not applied to a line headed by its entry. A line that says so, or that is headed by a name, gives the form on record, which may keep a tag or linker.
MycX2-PARP-13.2 WT (Q7Z2W4-2, form named): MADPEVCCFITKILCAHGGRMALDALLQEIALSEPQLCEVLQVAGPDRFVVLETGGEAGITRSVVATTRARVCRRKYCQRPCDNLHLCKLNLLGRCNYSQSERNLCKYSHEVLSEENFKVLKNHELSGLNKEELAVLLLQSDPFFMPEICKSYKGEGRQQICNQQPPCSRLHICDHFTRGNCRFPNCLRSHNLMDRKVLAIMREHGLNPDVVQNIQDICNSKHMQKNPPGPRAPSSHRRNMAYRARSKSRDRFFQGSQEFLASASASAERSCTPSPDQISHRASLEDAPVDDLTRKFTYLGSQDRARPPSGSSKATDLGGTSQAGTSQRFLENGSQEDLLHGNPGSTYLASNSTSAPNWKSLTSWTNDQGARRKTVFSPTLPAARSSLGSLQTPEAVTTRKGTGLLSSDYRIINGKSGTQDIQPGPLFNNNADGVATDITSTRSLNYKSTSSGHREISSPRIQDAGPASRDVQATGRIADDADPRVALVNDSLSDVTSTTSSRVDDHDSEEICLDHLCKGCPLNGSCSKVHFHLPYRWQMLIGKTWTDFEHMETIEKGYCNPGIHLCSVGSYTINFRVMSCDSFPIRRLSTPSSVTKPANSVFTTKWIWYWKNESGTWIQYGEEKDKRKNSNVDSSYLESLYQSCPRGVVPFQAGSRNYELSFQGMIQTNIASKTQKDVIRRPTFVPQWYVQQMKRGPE

GFP-WT-PARP-7 = target: T2, GFP-WT-PARP-7 (UniProt Q7Z3E1); assay: co-IP; MycX2-PARP-13.2 WT or ZnF domain mutants co-expressed with GFP-PARP-7 or GFP empty vector in HEK 293T cells; GFP-PARP-7 immunoprecipitated with GFP-nanobody magnetic beads (Chromotek); Western blot for ADPr, GFP, Myc, actin
T2 sequence: T1 sequence

Row | binding (GST-PARP-7) | binding (GFP-WT-PARP-7) | Substance
1 | binds | – | His6-SUMO-PARP-13.2 (from UniProt Q7Z2W4-2 1-699)
2 | – | binds | MycX2-PARP-13.2 WT (from UniProt Q7Z2W4-2 1-699)

— article PMC7880690, “Chemical genetics and proteome-wide site mapping reveal cysteine MARylation by PARP-7 on immune-relevant protein targets” (eLife, 2021)
